# Literature values in patent US20190365743A1, “HEDGEHOG PATHWAY INHIBITION FOR TREATMENT OF HIGH-RISK BASAL CELL CARCINOMA OR HIGH-RISK BASAL CELL CARCINOMA NEVUS SYNDROME” (HEDGEPATH PHARMACEUTICALS, INC., priority 2018, published 2019).
# At least one compound was matched to its structure with a doubt left.
# Tested on: prostate cancer xenograft
# Settings: murine prostate cancer xenograft models; cited from earlier work
compound,measurement,value
CCC(C)n1ncn(-c2ccc(N3CCN(c4ccc(OCC5COC(Cn6cncn6)(c6ccc(Cl)cc6Cl)O5)cc4)CC3)cc2)c1=O (stereo not shown) [itraconazole],tumor growth,delays tumor growth
